Laboratory results as given in publication PMC6896717.
No constants are given. Whether binding was seen depends on the method and setting. In cells and extracts the contact can be indirect. Some results given as binding are weak or reduced against the parent protein; the word gives no strength.

Amino acid sequences for entries named in this document (tags omitted). Residues count along the entry.
UniProt O88382: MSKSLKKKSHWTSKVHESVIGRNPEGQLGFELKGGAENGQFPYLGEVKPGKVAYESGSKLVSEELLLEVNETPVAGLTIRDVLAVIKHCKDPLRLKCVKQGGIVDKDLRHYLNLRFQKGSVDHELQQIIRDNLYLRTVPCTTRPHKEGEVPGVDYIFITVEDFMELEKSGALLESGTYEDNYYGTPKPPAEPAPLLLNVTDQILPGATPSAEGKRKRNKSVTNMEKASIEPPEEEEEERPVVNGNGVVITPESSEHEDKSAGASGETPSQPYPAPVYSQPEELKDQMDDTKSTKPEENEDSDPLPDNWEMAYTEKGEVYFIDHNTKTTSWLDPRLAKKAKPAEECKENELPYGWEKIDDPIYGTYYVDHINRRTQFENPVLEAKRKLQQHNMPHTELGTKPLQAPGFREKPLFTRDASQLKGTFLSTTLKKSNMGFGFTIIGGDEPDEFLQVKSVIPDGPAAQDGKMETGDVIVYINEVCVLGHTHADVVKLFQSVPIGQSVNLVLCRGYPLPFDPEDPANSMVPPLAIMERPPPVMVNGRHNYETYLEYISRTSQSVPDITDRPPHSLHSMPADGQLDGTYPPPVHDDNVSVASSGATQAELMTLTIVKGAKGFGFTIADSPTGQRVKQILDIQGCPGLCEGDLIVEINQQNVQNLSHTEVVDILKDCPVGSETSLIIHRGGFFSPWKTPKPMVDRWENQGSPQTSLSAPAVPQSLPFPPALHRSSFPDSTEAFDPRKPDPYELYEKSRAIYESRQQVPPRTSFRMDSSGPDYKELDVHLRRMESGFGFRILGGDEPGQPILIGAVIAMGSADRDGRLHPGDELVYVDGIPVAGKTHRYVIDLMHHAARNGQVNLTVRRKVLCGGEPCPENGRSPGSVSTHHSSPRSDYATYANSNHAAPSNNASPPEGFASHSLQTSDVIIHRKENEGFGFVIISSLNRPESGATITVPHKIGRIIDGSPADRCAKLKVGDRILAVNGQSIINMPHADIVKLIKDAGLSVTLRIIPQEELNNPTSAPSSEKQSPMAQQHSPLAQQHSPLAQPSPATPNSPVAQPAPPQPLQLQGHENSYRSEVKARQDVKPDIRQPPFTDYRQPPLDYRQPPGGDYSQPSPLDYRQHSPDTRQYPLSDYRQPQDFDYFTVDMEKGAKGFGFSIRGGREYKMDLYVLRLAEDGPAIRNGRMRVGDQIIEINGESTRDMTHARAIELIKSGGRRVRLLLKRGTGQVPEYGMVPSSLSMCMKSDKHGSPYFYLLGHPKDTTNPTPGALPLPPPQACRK
UniProt Q8BYM5, residues 35-825: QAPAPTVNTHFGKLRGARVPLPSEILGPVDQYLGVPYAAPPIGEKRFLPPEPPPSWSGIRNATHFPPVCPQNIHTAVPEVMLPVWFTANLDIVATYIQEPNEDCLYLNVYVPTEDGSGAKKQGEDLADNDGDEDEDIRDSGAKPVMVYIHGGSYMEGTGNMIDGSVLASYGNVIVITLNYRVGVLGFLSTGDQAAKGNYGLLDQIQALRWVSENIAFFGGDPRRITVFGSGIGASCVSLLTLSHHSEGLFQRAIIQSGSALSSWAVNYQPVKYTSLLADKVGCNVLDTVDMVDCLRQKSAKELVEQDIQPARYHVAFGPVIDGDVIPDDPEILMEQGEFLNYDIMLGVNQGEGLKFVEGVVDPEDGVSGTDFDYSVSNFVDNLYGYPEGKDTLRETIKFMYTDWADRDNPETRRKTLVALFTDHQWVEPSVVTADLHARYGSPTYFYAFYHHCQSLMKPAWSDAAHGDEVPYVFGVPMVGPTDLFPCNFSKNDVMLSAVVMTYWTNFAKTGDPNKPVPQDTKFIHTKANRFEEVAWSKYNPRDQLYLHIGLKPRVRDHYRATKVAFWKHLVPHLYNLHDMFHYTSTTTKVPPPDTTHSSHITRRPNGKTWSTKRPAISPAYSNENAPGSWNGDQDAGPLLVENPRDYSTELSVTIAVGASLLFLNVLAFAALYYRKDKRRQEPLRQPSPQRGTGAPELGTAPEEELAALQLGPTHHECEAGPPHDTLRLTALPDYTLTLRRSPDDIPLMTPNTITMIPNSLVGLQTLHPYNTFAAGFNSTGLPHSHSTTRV

What was measured:
[1] = biological target: myc-tagged MAGI-2 (membrane associated guanylate kinase, WW, and PDZ domain containing 2) (rat) (UniProt O88382); test: co-IP; HEK293T cells co-transfected with two plasmids; lysed with 1% Triton X-100 in PBS with phosphatase inhibitor cocktail 36 h after transfection; antibody (NL3 or myc) 2 h at 4°C, then Protein A beads 2 h; western blot
HA-tagged neuroligin 3 = HA-tagged neuroligin 3 (UniProt Q8BYM5); test: as above

Substance | binding [1] | binding (HA-tagged neuroligin 3)
HA-tagged neuroligin 3 (from UniProt Q8BYM5 35-825) | binds | 
myc-tagged MAGI-2 (membrane associated guanylate kinase, WW, and PDZ domain containing 2) (from UniProt O88382 1-1277) |  | binds
